In test [1] the target is human INCENP -6Myc full-length wild type, expressed in HeLa cells (human) (UniProt Q9NQS7). In words: co-IP; Extracts of HeLa cells expressing INCENP -6Myc versions (mitotic, STLC; also G2, RO3306, in Fig. S5D); IP with anti-Myc magnetic beads, 1 h at 4°C, lysis buffer with 150 mM NaCl; immunoblot.
The target of test [2] is T1, human INCENP (121-270) PVI_3A -6His, GST removed (human) (UniProt Q9NQS7).
T1 sequence: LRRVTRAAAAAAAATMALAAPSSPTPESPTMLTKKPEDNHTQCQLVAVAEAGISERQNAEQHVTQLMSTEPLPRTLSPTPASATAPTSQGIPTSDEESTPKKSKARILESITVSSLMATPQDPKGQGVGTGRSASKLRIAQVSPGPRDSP
In words: condition: 10 μM fragment in the cell, 100 μM HP1α dimer in the syringe; ITC; VP-ITC, 10 μM INCENP fragment in the cell, 100 μM HP1α dimer in the syringe, 20°C, 10 mM Tris pH 8.0, 150 mM NaCl, 1 mM DTT (Fig. 2C); one-site model; both purified.

The chains behind the UniProt entries cited, without tags or fusion partners.
UniProt P45973: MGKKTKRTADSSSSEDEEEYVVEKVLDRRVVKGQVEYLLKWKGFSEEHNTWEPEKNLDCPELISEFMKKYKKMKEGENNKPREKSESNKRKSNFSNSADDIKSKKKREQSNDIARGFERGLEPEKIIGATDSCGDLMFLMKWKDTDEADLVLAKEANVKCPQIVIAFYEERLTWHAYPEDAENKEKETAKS

Test [3] addresses T2, custom-made peptide of hINCENP (159-178) (human) (UniProt Q9NQS7).
T2 sequence (peptide): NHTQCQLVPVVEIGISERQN
The test is described as follows: condition: 10 μM peptide in the cell, 100 μM HP1α dimer in the syringe; ITC; VP-ITC, 10 μM INCENP peptide or fragment in the cell, 100 μM HP1α full-length or CSD dimer in the syringe, 20°C, 20 mM NaPO4 pH 7.0, 150 mM NaCl, 1 mM DTT (Fig. 2D, Fig. 3D and E); one-site model; both purified.

These are yes or no findings as the source states them, for the method shown. For part of these data: Binding seen in cells or lysates may run through a third protein. Some binding calls cover weakened binding; strength is not graded here. For part of these data: Where a sequence is shown, tags or fusion partners need not be part of it.

Consider “HP1α, endogenous in HeLa cell extracts (from UniProt P45973 1-191)”, for which the binding entry in test [1] is reported as “binds”. On to “full-length human HP1α WT (hHP1α), recombinant (from UniProt P45973 1-191)”, for which the binding result in test [2] and in test [3] was “no binding” each time.

Source of the values: article PMC11116813.
